PubChem BioAssay AID504784 | Drosophila RNAi Screening Center | 2011
In all, the deposit lists about 17,000 reagents; below is an unselected part of those with a known target gene and a result. 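Each column is one replicate's B-score; the combined score over replicates was not deposited, so single values may mislead.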 Names joined by + are all predicted targets of the reagent. Not all columns of the deposit are shown.

- Purpose: 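Search for regulators of lipid droplet storage in oleate-fed fly cells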 (primary screen)
- System: Drosophila Kc167 embryonic cells
- Knock-down reagent: long dsRNA against Drosophila genes, about 250 ng dsRNA per well
- Time to read-out: 4 days
- Treatment: cells fed 400 µM oleic acid bound to BSA
- Measured: 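Cells imaged and segmented; ratio of lipid droplet area to nuclear area, log-transformed, then normalised as a B-score over the screen; higher means more stored lipid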
- Scale: droplet/nuclear area B-score: higher = more stored lipid (overstorage)

no.	Gene	PubChem SID	droplet/nuclear area B-score, replicate 1	droplet/nuclear area B-score, replicate 2
1	bdg	SID104186928	0.138	-1.69
2	obst-I	SID104188131	-2.14	2.96
3	CG33461	SID104202251	0.0567	1.51
4	CG7465	SID104188384	0.844	1.39
5	CG7465	SID104201823	-0.587	-0.883
6	FLASH	SID104186664	0.00466	-0.636
7	Csl4	SID104182736	0.441	-0.391
8	Csl4	SID104202061	-0.726	1.13
9	CG13539	SID104183973	0.737	-1.35
10	Atf3	SID104197017	2.9	1.54
11	Atf3	SID104202353	0.0672	0.455
12	CG4660	SID104198170	1.83	0.119
13	CG31099	SID104194044	0.329	0.85
14	CG1927	SID104187938	0.386	-0.916
15	Rh7	SID104190321	0.0401	1.01
16	Egm	SID104187111	-0.89	0.923
17	Egm	SID104202219	3.73	3.28
18	CG7423	SID104199836	1.35	-0.812
19	Cyp6d4	SID104196425	1.95	1.64
20	Or45b	SID104187280	1.06	-0.701
21	Neu2	SID104191611	-0.336	-0.245
22	CG13954	SID104186234	0.319	-1.14
23	CG2906	SID104186633	0.0186	2.01
24	CG1812	SID104200349	-0.882	-0.547
25	CG5388	SID104195581	0.902	0.887
26	Tsp97E	SID104195811	-0.691	
27	eIF5B	SID104188221	-0.0424	2.38
28	eIF5B	SID104188502	0.939	1.74
29	mats	SID104193354	1.64	-0.0841
30	mats	SID104194494	-0.862	0.832
31	CG4009	SID104195328	-0.871	-1.13
32	CG6901	SID104195921	4.4	1.83
33	sala	SID104183397	-1.88	-1.42
34	PGRP-SC1b	SID104187007	0.393	1.34
35	sing	SID104199322		1.67
36	CG17575	SID104186474	0.077	-1.32
37	aurA	SID104196697	2.26	1.52
38	frj	SID104183042	-0.927	-1.23
39	CG4955	SID104199719	-0.322	-3.25
40	Cdlc2	SID104180535	0.561	0.0212
41	CG5265	SID104195548	0.0285	0.0944
42	Itgbn	SID104183285	0.248	0.134
43	CG32772	SID104197844	0.959	1.17
44	CG32772	SID104198198	0.533	-1.11
45	CG32772	SID104201841	-0.502	0.786
46	Dlic	SID104199616	1.42	-0.223
47	CG7120	SID104190565	-0.193	0.638
48	l(3)73Ah + CG32163	SID104201518	4.11	-0.791
49	Alg2	SID104188090	0.224	
50	CG33453	SID104185574	-0.221	-0.685
51	CG7054	SID104195977	0.33	1.89
52	CG3347	SID104180389	-0.796	0.411
53	CG1440	SID104197707	1.77	1.04
54	Vps16A	SID104196214	-1.71	-1.12
55	CG3588	SID104198265	-0.334	-0.907
56	Eig71Eg	SID104190946	-1.33	-0.0425

Copied from the list:
For “droplet/nuclear area B-score, replicate 1”, Vps16A [SID104196214] reads -1.71
Tsp97E [SID104195811], droplet/nuclear area B-score, replicate 1: -0.691
Result of PGRP-SC1b [SID104187007] in “droplet/nuclear area B-score, replicate 1”: 0.393
